Experimental data taken from the supplement of paper PMC4371806.
The full ranking holds about 1,600 compounds; the median of “plate-normalized OD600 growth (mean of duplicates)” is about 0.31, and the lowest 2% start at about 0.23. This is one part of the list.

Tested on: Escherichia coli BW25113
Test: plate-normalized OD600 growth (mean of duplicates) (OD600 (normalized)); higher = more growth (less inhibition)
Conditions: 10 µM
Protocol: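 E. coli BW25113 in LB (100 µl, 96-well, no shaking) was exposed to 10 µM of each compound (here the ChemBridge subset of a ~30,000-member library) and grown at 37°C for 24 h or 15°C for 48 h, in duplicate. Growth was read as OD600 and the duplicate ODs were normalized across screening plates to correct plate-to-plate variation.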

Row | Compound | plate-normalized OD600 growth (temperature: 15°C, 48 h) | plate-normalized OD600 growth (temperature: 37°C, 24 h)
1 | OC(COc1ccc(C23CC4CC(CC(C4)C2)C3)cc1)CN1CCOCC1 (stereo unspecified) | 0.243 | 0.592
2 | O=C(Nc1ccccc1NC(=O)c1ccccc1F)c1ccccc1F | 0.263 | 0.627
3 | C/C=C(\C)CN1CCN(c2ccc(C(C)=O)cc2)CC1 | 0.237 | 0.587
4 | Cc1nc2c(c(=O)[nH]1)C(c1cccnc1)C(C#N)=C(N)O2 (stereo unspecified) | 0.245 | 0.622
5 | Cc1ccc(C)c(OCCCCn2ccnc2)c1 | 0.235 | 0.596
6 | O=C(O)CCCC(=O)Nc1cccc([N+](=O)[O-])c1 | 0.236 | 0.626
7 | COc1ccc(NC(=O)Nc2ccc(F)c(Cl)c2)cc1 | 0.283 | 0.58
8 | O=[N+]([O-])c1ccc(/C=C/c2ccc3ccccc3n2)s1 | 0.235 | 0.619
9 | Cc1noc(C)c1Cc1c(C)noc1C | 0.263 | 0.639
10 | Cn1c(-c2ccccc2)nc2cnccc21 | 0.266 | 0.648
11 | COc1ccc(C(=O)Nc2ccc(OC)cc2OC)cc1 | 0.258 | 0.652
12 | CC(C)(C)NC(=O)c1ccccc1C(=O)NC(C)(C)C | 0.263 | 0.63
13 | CC(C)(C)N(Cc1ccccc1)C(=O)c1ccco1 | 0.251 | 0.62
14 | CC(=O)c1c(C)[nH]n(-c2ccccc2)c1=O | 0.252 | 0.618
15 | N#CC(=Cc1ccc(N2CCOCC2)cc1)c1nc2ccccc2[nH]1 | 0.252 | 0.599
16 | CN(C)c1ccc(-c2nc3ccccc3o2)cc1 | 0.252 | 0.615
17 | c1ccc(OCCCCN2CCCCC2)cc1 | 0.241 | 0.621
18 | OCCN1CCN(C/C=C/c2ccccc2)CC1 | 0.257 | 0.614
19 | O=C1CC(NCCc2ccccc2)C(=O)N1c1cccc(Cl)c1 (stereo unspecified) | 0.255 | 0.624
20 | O=C(COc1ccc(Cl)cc1Cl)NC1CCCC1 | 0.252 | 0.616
21 | N#C/C(C(=O)c1ccccc1)=C1/CCCCCN1 | 0.252 | 0.604
22 | Brc1ccc(CN2CCN(c3ccccc3)CC2)s1 | 0.248 | 0.615

Row | Compound | plate-normalized OD600 growth (temperature: 15°C, 48 h) | plate-normalized OD600 growth (temperature: 37°C, 24 h)
23 | NC(=O)c1c(NC(=O)C2CCCO2)sc2c1CCCCCC2 (stereo unspecified) | 0.258 | 0.622
24 | CC1=CCC2C(=O)N(Cc3ccccc3)C(=O)C2C1 (stereo unspecified) | 0.244 | 0.612
25 | C/C(=C\c1ccccc1)CN1CCN(c2ccccc2F)CC1 | 0.261 | 0.64
26 | Cc1cc([O-])c2n(cn[n+]2Cc2ccccc2)n1 | 0.262 | 0.631
27 | O=C(Nc1ccc(F)cc1)C1CC(=O)N(c2ccc(Br)cc2)C1 (stereo unspecified) | 0.24 | 0.603
28 | O=C(Nc1ccc(F)cc1F)c1cccc(Br)c1 | 0.259 | 0.605
29 | CC(C)(C)S(=O)(=O)c1sc(C=O)cc1C=O | 0.241 | 0.618
30 | COc1ccc(/C=C(\NC(=O)c2ccco2)C(=O)N2CCOCC2)cc1 | 0.264 | 0.635
31 | N#Cc1c(NC(=O)c2ccc(Cl)cc2Cl)sc2c1CCCCC2 | 0.245 | 0.62
32 | N#Cc1ccccc1NC(=O)C1CC1(c1ccccc1)c1ccccc1 (stereo unspecified) | 0.255 | 0.635
33 | O=C(Cc1ccc(Br)cc1)N1CCCc2ccccc21 | 0.248 | 0.622
34 | O=C(NCc1ccccc1)c1cccc(S(=O)(=O)N2CCCCC2)c1 | 0.238 | 0.612
35 | NC(=O)c1ccc2c(c1)C1c3ccccc3C2c2ccccc21 | 0.237 | 0.608
36 | Cc1cccc(N=C(N)NC(N)=O)c1 | 0.253 | 0.638
37 | CCN(CC)C(=O)CSc1nc(O)cc(=O)n1-c1ccccc1OC | 0.259 | 0.626
38 | Fc1ccccc1-c1nc(-c2ccncc2)no1 | 0.238 | 0.613
39 | O=c1[nH]c(/C=C/c2cccc(I)c2)c([N+](=O)[O-])c(=O)[nH]1 | 0.265 | 0.643
40 | CCN1CCC(N2CCCC(C(=O)N(CC)CC)C2)CC1 (stereo unspecified) | 0.237 | 0.589
41 | COc1ccc(CN2CCCN(C)CC2)c(OC)c1 | 0.25 | 0.619
42 | COc1cccc(OC)c1C(=O)Nc1cc(C)cc(C)c1 | 0.242 | 0.611
43 | N#CC1=C(N)OC2=C(C(=O)CCC2)C1c1ccc(Oc2ccc([N+](=O)[O-])cc2Cl)cc1 (stereo unspecified) | 0.255 | 0.645
44 | Cc1ncc([N+](=O)[O-])n1Cc1ccccc1Cl | 0.251 | 0.61

Exported tab-delimited: seven of the compounds above.
Row	Compound	plate-normalized OD600 growth (temperature: 15°C, 48 h)	plate-normalized OD600 growth (temperature: 37°C, 24 h)
6	O=C(O)CCCC(=O)Nc1cccc([N+](=O)[O-])c1	0.236	0.626
7	COc1ccc(NC(=O)Nc2ccc(F)c(Cl)c2)cc1	0.283	0.58
8	O=[N+]([O-])c1ccc(/C=C/c2ccc3ccccc3n2)s1	0.235	0.619
9	Cc1noc(C)c1Cc1c(C)noc1C	0.263	0.639
10	Cn1c(-c2ccccc2)nc2cnccc21	0.266	0.648
11	COc1ccc(C(=O)Nc2ccc(OC)cc2OC)cc1	0.258	0.652
12	CC(C)(C)NC(=O)c1ccccc1C(=O)NC(C)(C)C	0.263	0.63

Carrying on.

Row | Compound | plate-normalized OD600 growth (temperature: 15°C, 48 h) | plate-normalized OD600 growth (temperature: 37°C, 24 h)
45 | O=C1CCCc2sc([N+](=O)[O-])cc21 | 0.262 | 0.676
46 | Cc1sc2ncnc(SCC(=O)O)c2c1C | 0.249 | 0.612
47 | CCCN1CCC(NCc2ccc(Cl)c(Cl)c2)CC1 | 0.247 | 0.587
48 | COc1ccccc1N1CCN(Cc2cccs2)CC1 | 0.235 | 0.598
49 | CCSc1cnn(-c2ccccc2)c(=O)c1SCC | 0.261 | 0.61
50 | Cc1cc(NCc2cccnc2)ccc1Br | 0.274 | 0.635
51 | Cc1cn2cc(-c3ccc([N+](=O)[O-])cc3)nc2s1 | 0.255 | 0.654
52 | Nc1ccc2c(c1)S(=O)(=O)c1cc(N)ccc1O2 | 0.253 | 0.625
53 | CCC(=O)Nc1ccc2nc(C)[nH]c2c1 | 0.239 | 0.598
54 | O=C1CC(N2CCOCC2)C(=O)N1c1ccc(I)cc1 (stereo unspecified) | 0.257 | 0.645
55 | O=S(=O)(NCCc1ccccc1)c1cccc2nsnc12 | 0.241 | 0.666
56 | O=C1c2ccccc2C(=O)N1S(=O)(=O)c1ccccc1 | 0.256 | 0.622
57 | COc1cccc(Nc2nc(-c3ccc(OC)c(F)c3)cs2)c1 | 0.245 | 0.609
58 | CC(=O)c1cccc(NC(=O)CSCc2cccc(Br)c2)c1 | 0.245 | 0.625
59 | Cc1ccc(C23CC4CC(CC(O)(C4)C2)C3)cc1[N+](=O)[O-] | 0.235 | 0.638
60 | CCCOc1ccc(CC(=N)N)cc1 | 0.247 | 0.617
61 | O=C(O)Cn1c2ccccc2c2cc([N+](=O)[O-])ccc21 | 0.226 | 0.625
62 | O=C(CN1CCN(c2ccc(Cl)cc2[N+](=O)[O-])CC1)N1CCOCC1 | 0.236 | 0.602
63 | N=c1c2c3c(sc2nc2n1CCCCC2)CCCCC3 | 0.24 | 0.61
64 | CCOC(=O)N1CCN(Cc2ccccc2Cl)CC1 | 0.244 | 0.621
65 | CN(C)c1ccc(CN2CCc3ccccc3C2)cc1 | 0.244 | 0.619
66 | N#Cc1c(N)nc(SCC(=O)c2ccc(Cl)cc2)c(C#N)c1-c1ccco1 | 0.257 | 0.615

Row | Compound | plate-normalized OD600 growth (temperature: 15°C, 48 h) | plate-normalized OD600 growth (temperature: 37°C, 24 h)
67 | COc1ccc(C2=NCCc3cc(OC)c(OC)cc32)cc1 | 0.249 | 0.605
68 | Oc1ccccc1-c1noc(-c2ccccc2O)n1 | 0.237 | 0.604
69 | COc1ccc(C2CC(C3C(=O)c4ccccc4C3=O)=NN2)cc1 (stereo unspecified) | 0.249 | 0.607
70 | COc1ccc(OC)c(Nc2nc(C)c(C(C)=O)s2)c1 | 0.272 | 0.646
71 | Cc1ccc(NC(=O)C2C3C4CCC(C4)C23)c(C)c1 (stereo unspecified) | 0.236 | 0.591
72 | O=C1CC(N2CCN(C/C=C/c3ccccc3)CC2)C(=O)N1c1ccc(Cl)cc1 (stereo unspecified) | 0.247 | 0.628
73 | COc1ccc(Nc2ncc(C#N)c(Nc3ccccc3)c2C#N)cc1 | 0.253 | 0.633
74 | [O-][n+]1c2c(nn1-c1ccccc1)-c1nonc1CC2 | 0.258 | 0.618
75 | CC1=C(CCN2CCN(C)CC2)C(C)(C)CCC1 | 0.237 | 0.656
76 | Nc1ccc2oc3ccc(N)cc3c(=O)c2c1 | 0.246 | 0.61
77 | O=C1c2ccc(-c3ccc4c(c3)C(=O)N(CCO)C4=O)cc2C(=O)N1CCO | 0.248 | 0.656
78 | COc1ccccc1N1CCN(Cc2cc(Br)c(O)c(OC)c2)CC1 | 0.271 | 0.627
79 | O=C(CC1Nc2ccccc2NC1=O)Nc1ccc(Cl)cc1 (stereo unspecified) | 0.215 | 0.6
80 | O=C(Nc1ccc(I)cc1)c1cnccn1 | 0.242 | 0.626
81 | Cn1c2c(c(=O)[nH]c1=O)C(c1ccc(Cl)cc1)C1=C(N2)c2ccccc2C1=O (stereo unspecified) | 0.254 | 0.622
82 | Cc1onc(-c2ccccc2)c1C(=O)O | 0.271 | 0.628
83 | COc1ccc(N2C(=O)CC(NCc3ccco3)C2=O)cc1 (stereo unspecified) | 0.242 | 0.586
84 | N#CC1=C(N)Oc2cc(O)ccc2C1c1ccccc1 (stereo unspecified) | 0.256 | 0.607
85 | CCC1CCCCN1C(=O)c1cccc([N+](=O)[O-])c1C (stereo unspecified) | 0.247 | 0.612
86 | CCn1c(C)c(C=O)c2cc([N+](=O)[O-])ccc21 | 0.223 | 0.608
87 | C(=C\c1ccccc1)/CN1CCN(C2CCN(CCc3ccccc3)CC2)CC1 | 0.249 | 0.627
88 | C(CN1CCOCC1)NC1CC2CCC1C2 (stereo unspecified) | 0.244 | 0.628

Row | Compound | plate-normalized OD600 growth (temperature: 15°C, 48 h) | plate-normalized OD600 growth (temperature: 37°C, 24 h)
89 | COc1ccc(S(=O)(=O)Nc2ccc(C(C)C)cc2)cc1OC | 0.242 | 0.606
90 | COc1ccc(NS(=O)(=O)c2ccc(NC(=O)c3ccccc3)cc2)nn1 | 0.251 | 0.674
91 | CN1CCN(C(=O)NC23CC4CC(CC(C4)C2)C3)CC1 | 0.283 | 0.645
92 | Cc1cccc(-c2nc(-c3cccnc3)no2)c1 | 0.244 | 0.605
93 | COc1cccc(-c2nc(Cc3ccc(Cl)cc3)no2)c1 | 0.253 | 0.601
94 | CCC(Cc1ccccc1)NC(=O)c1ccc(OC)c(OC)c1 (stereo unspecified) | 0.252 | 0.62
95 | COc1ccc(NC(=O)c2ccc(OC)cc2)cc1 | 0.254 | 0.636
96 | C=CCOc1ccccc1CN1CCCN(C)CC1 | 0.217 | 0.595
97 | COc1ccc(NC(=O)[C@@H]2C3C=CC(C3)[C@@H]2C(=O)O)cc1 (stereo partly specified) | 0.243 | 0.634
98 | O=C(NCC1CCCO1)c1cc(Cl)ccc1Cl (stereo unspecified) | 0.252 | 0.609
99 | COc1ccccc1NS(=O)(=O)c1ccc(C(C)(C)C)cc1 | 0.254 | 0.618
100 | O=[N+]([O-])c1cccc(S(=O)(=O)/C=C/c2ccccc2)c1 | 0.243 | 0.625
101 | N#C/C(=C1/CCCCCN1)c1nnc2n1CCCCC2 | 0.267 | 0.655
102 | COc1ccccc1/C=C/CN1CCSCC1 | 0.235 | 0.61
103 | OC(Cc1ccc2ccccc2n1)C(Cl)(Cl)Cl (stereo unspecified) | 0.247 | 0.614
104 | COc1cccc(C2C(C#N)=C(N)Oc3nc(C)[nH]c(=O)c32)c1OC (stereo unspecified) | 0.269 | 0.635
105 | CN(C)Cc1c(N)cccc1O | 0.237 | 0.611
106 | O=[N+]([O-])c1ccc(CN2CCCC2)s1 | 0.253 | 0.605
107 | CCCCOc1ccc(N2C(=O)CC(N3CCN(c4ncccn4)CC3)C2=O)cc1 (stereo unspecified) | 0.25 | 0.613
108 | CC(=O)c1ccc(N2CCN(CC3CCCCC3)CC2)cc1 | 0.248 | 0.638
